Values from PubChem BioAssay AID1224830 (NIAID, 2016).
Test: 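Genes whose knock-down alters the TNF-alpha reporter response to LPS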 (primary screen). Cell system: human THP-1 monocytic leukaemia cells, TNF dual-luciferase reporter clone, PMA-differentiated to macrophage-like cells. Reagent: siRNA pool against human genes, 50 nM. Timing: LPS for 4 h, given about 3 days after siRNA transfection. Conditions: bacterial LPS (TLR4 ligand), 10 ng/ml. Detection: 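TNF firefly reporter luminescence divided by renilla, normalised to the plate median, then turned into a robust z-score for each replicate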. Reading the numbers: TNF reporter robust z-score: higher = stronger TNF reporter response to LPS. Hit rule: 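Each well counts as active if its z-score is over 2.8 or under -1.5; controls are left without a call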.
The deposit covers about 18,000 reagents; this is an unselected part. About 2,900 of them (16%) were called active. 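Calls are made per well; low scores hint the gene aids the LPS response, high scores that it dampens it.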 Entries without a mark were called inactive. Repeated entries: four replicate wells of each siRNA pool. Reagent sequences are not shown.

For TLN1 [SID315451894], what was measured?
TNF reporter robust z-score: -0.99

With TLN1 [SID315451894], how do the results read?
TNF reporter robust z-score: -0.83

With TLN1 [SID315451894], what was measured?
TNF reporter robust z-score: -0.5

How did the screen score TLN1 [SID315451894]?
TNF reporter robust z-score: -0.13

Which result is listed for DCUN1D3 [SID315461593]?
TNF reporter robust z-score: 0

What did the screen give for DCUN1D3 [SID315461593]?
TNF reporter robust z-score: 0.45

For DCUN1D3 [SID315461593], what was measured?
TNF reporter robust z-score: -0.27

How did the screen score DCUN1D3 [SID315461593]?
TNF reporter robust z-score: 2.46

Which result is listed for CXCL9 [SID315449975]?
TNF reporter robust z-score: -1

With CXCL9 [SID315449975], how do the results read?
TNF reporter robust z-score: -1.26

For CXCL9 [SID315449975], what does the deposit list?
TNF reporter robust z-score: -1.23

How did the screen score CXCL9 [SID315449975]?
TNF reporter robust z-score: -1.37

With CYP3A7 [SID315448204], how do the results read?
TNF reporter robust z-score: 0.52

Which result is listed for CYP3A7 [SID315448204]?
TNF reporter robust z-score: 0.34

What is on record for CYP3A7 [SID315448204]?
TNF reporter robust z-score: -0.15

With CYP3A7 [SID315448204], what was measured?
TNF reporter robust z-score: 0.62

How did the screen score INVS [SID315455938]?
TNF reporter robust z-score: 0.58

How did the screen score INVS [SID315455938]?
TNF reporter robust z-score: 0.14

With INVS [SID315455938], what was measured?
TNF reporter robust z-score: 0.09

Which result is listed for INVS [SID315455938]?
TNF reporter robust z-score: -0.34

What is on record for PRKCZ [SID315450814]?
TNF reporter robust z-score: -0.43

Which result is listed for PRKCZ [SID315450814]?
TNF reporter robust z-score: 0.83

With PRKCZ [SID315450814], what does the deposit list?
TNF reporter robust z-score: 0.81

For PRKCZ [SID315450814], how do the results read?
TNF reporter robust z-score: -0.32

With PPARGC1A [SID315454430], what was measured?
TNF reporter robust z-score: -1.26

For PPARGC1A [SID315454430], what was measured?
TNF reporter robust z-score: -0.93

What did the screen give for PPARGC1A [SID315454430]?
TNF reporter robust z-score: -0.82

For RBM47 [SID315457042], how do the results read?
TNF reporter robust z-score: -0.95

Which result is listed for RBM47 [SID315457042]?
TNF reporter robust z-score: 0.66

What did the screen give for RBM47 [SID315457042]?
TNF reporter robust z-score: 0.24

For RBM47 [SID315457042], what was measured?
TNF reporter robust z-score: -0.11

What did the screen give for ZNF275 [SID315454390]?
TNF reporter robust z-score: 1.94

What did the screen give for ZNF275 [SID315454390]?
TNF reporter robust z-score: 1.55

What did the screen give for ZNF275 [SID315454390]?
TNF reporter robust z-score: 0.9

With ZNF275 [SID315454390], what does the deposit list?
TNF reporter robust z-score: 1.43

For MYCL [SID315450098], what does the deposit list?
TNF reporter robust z-score: 0.11

What did the screen give for MYCL [SID315450098]?
TNF reporter robust z-score: -0.22

With MYCL [SID315450098], how do the results read?
TNF reporter robust z-score: -1.15

What did the screen give for IMMT [SID315454514]?
TNF reporter robust z-score: -0.65

For IMMT [SID315454514], how do the results read?
TNF reporter robust z-score: -0.24

What did the screen give for IMMT [SID315454514]?
TNF reporter robust z-score: -0.61

With IMMT [SID315454514], what does the deposit list?
TNF reporter robust z-score: 0.42

How did the screen score CNTRL [SID315454570]?
TNF reporter robust z-score: -1

With CNTRL [SID315454570], what does the deposit list?
TNF reporter robust z-score: -0.51

What did the screen give for CNTRL [SID315454570]?
TNF reporter robust z-score: -0.64

With CNTRL [SID315454570], what was measured?
TNF reporter robust z-score: -0.94

What did the screen give for RASL10B [SID315460929]?
TNF reporter robust z-score: -0.65

Which result is listed for RASL10B [SID315460929]?
TNF reporter robust z-score: -1.05

What did the screen give for RASL10B [SID315460929]?
TNF reporter robust z-score: -0.61

What did the screen give for RASL10B [SID315460929]?
TNF reporter robust z-score: -0.37

Part of the list above, set out differently:
| gene | PubChem SID | TNF reporter robust z-score |
| --- | --- | --- |
| CXCL9 | SID315449975 | -1.26 |
| CXCL9 | SID315449975 | -1.23 |
